Laboratory results taken from patent publication US20220048884A1, “NRF2 ACTIVATOR” (BIOGEN MA INC., priority 2017, published 2022).
Some of these results come from one statement about several compounds together.

Test system: NRF2
Assay: PathHunter Nuclear Translocation assay (DiscoverX), agonist format
Assay type: cell-based
Conditions: 6 hours incubation, 10 concentrations, 30 μM top concentration
Source text: Vehicle concentration was 1%.
Microplates were read following signal generation with a PerkinElmer Envision™ instrument for chemiluminescent signal detection.

Cc1ccc(C(=O)N2CCc3ccc(C(CC(=O)O)c4ccc5c(c4C)OCO5)cc3C2)cc1C (stereo not drawn) [Example 143, 3-(2-(3,4-dimethylbenzoyl)-1,2,3,4-tetrahydroisoquinolin-7-yl)-3-(4-methylbenzo[d][1,3]dioxol-5-yl)propanoic acid]
EC50: > 10 µM

Cc1ccc(C(=O)N2CCc3ccc([C@H](CC(=O)O)c4ccc5c(c4C)OCO5)cc3C2)cc1C [Example 144, (3S)-3-[2-(3,4-dimethylbenzoyl)-3,4-dihydro-1H-isoquinolin-7-yl]-3-(4-methyl-1,3-benzodioxol-5-yl)propanoic acid]
EC50: > 10 µM

Cc1ccc(C(=O)N2CCc3ccc([C@@H](CC(=O)O)c4ccc5c(c4C)OCO5)cc3C2)cc1C [Example 145, (3R)-3-[2-(3,4-dimethylbenzoyl)-3,4-dihydro-1H-isoquinolin-7-yl]-3-(4-methyl-1,3-benzodioxol-5-yl)propanoic acid]
EC50: > 10 µM

Cc1ccc(C(=O)N2CCc3ccc(C(CC(=O)O)c4cc5c(cc4C)OCCC5)cc3C2)cc1C (stereo not drawn) [Example 146, 3-(2-(3,4-dimethylbenzoyl)-1,2,3,4-tetrahydroisoquinolin-7-yl)-3-(7-methylchroman-6-yl)propanoic acid]
EC50: > 10 µM

Cc1ccc(C(=O)N2CCc3ccc(C(CC(=O)O)c4ccc5c(c4)CCN(C)C5)cc3C2)cc1C (stereo not drawn) [Example 147, 3-[2-(3,4-dimethylbenzoyl)-3,4-dihydro-1H-isoquinolin-7-yl]-3-(2-methyl-3,4-dihydro-1H-isoquinolin-6-yl)propanoic acid]
EC50: > 10 µM

Cc1ccc(C(=O)N2CCc3ccc(C(CC(=O)O)c4cc5ncn(C)c5cc4F)cc3C2)cc1C (stereo not drawn) [Example 148, 3-[2-(3,4-dimethylbenzoyl)-3,4-dihydro-1H-isoquinolin-7-yl]-3-(6-fluoro-1-methyl-benzimidazol-5-yl)propanoic acid]
EC50: > 10 µM

CCn1nnc2c(C)c([C@@H](CNS(C)(=O)=O)c3ccc4c(c3)CN(C(=O)c3ccc(C)c(C)c3)CC4)ccc21 [Example 151, (S)—N-(2-(2-(3,4-dimethylbenzoyl)-1,2,3,4-tetrahydroisoquinolin-7-yl)-2-(1-ethyl-4-methyl-1H-benzo[d][1,2,3]triazol-5-yl)ethyl)methanesulfonamide]
EC50: > 10 µM

CCn1nnc2c(C)c([C@@H](CNC=O)c3ccc4c(c3)CN(C(=O)c3ccc(C)c(C)c3)CC4)ccc21 [Example 152, N-[(2S)-2-[2-(3,4-dimethylbenzoyl)-3,4-dihydro-1H-isoquinolin-7-yl]-2-(1-ethyl-4-methyl-benzotriazol-5-yl)ethyl]formamide]
EC50: > 10 µM

CCn1nnc2c(C)c([C@@H](CC(=O)O)c3ccc4c(c3)C3CCC(C4)N3C(=O)c3ccccc3)ccc21 (stereo partly drawn) [Example 153, (3S)-3-(10-benzoyl-6,7,8,9-tetrahydro-5H-5,8-epiminobenzo[7]annulen-3-yl)-3-(1-ethyl-4-methyl-1H-benzo[d][1,2,3]triazol-5-yl)propanoic acid]
EC50: > 10 µM

CCn1nnc2c(C)c([C@H](CC(=O)O)c3ccc4c(c3)C3CCC(C4)N3C(=O)c3ccccc3)ccc21 (stereo partly drawn) [Example 154, (3R)-3-(10-benzoyl-6,7,8,9-tetrahydro-5H-5,8-epiminobenzo[7]annulen-3-yl)-3-(1-ethyl-4-methyl-1H-benzo[d][1,2,3]triazol-5-yl)propanoic Acid]
EC50: < 10 µM

CCn1nnc2c(C)c([C@@H](CC(=O)O)c3ccc4c(c3)C3CCC(C4)N3C(=O)c3ccc(C)c(C)c3)ccc21 (stereo partly drawn) [Example 155, (3S)-3-(10-(3,4-dimethylbenzoyl)-6,7,8,9-tetrahydro-5H-5,8-epiminobenzo[7]annulen-3-yl)-3-(1-ethyl-4-methyl-1H-benzo[d][1,2,3]triazol-5-yl)propanoic Acid]
EC50: < 10 µM

CCn1nnc2c(C)c([C@H](CC(=O)O)c3ccc4c(c3)C3CCC(C4)N3C(=O)c3ccc(C)c(C)c3)ccc21 (stereo partly drawn) [Example 156, (3R)-3-(10-(3,4-dimethylbenzoyl)-6,7,8,9-tetrahydro-5H-5,8-epiminobenzo[7]annulen-3-yl)-3-(1-ethyl-4-methyl-1H-benzo[d][1,2,3]triazol-5-yl)propanoic Acid]
EC50: < 10 µM

CCn1nnc2c(C)c([C@@H](CC(=O)O)c3ccc4c(c3)[C@@H]3CC[C@H](C4)N3C(=O)c3cc(C)ccc3C)ccc21 [Example 157, (S)-3-((5S,8R)-10-(2,5-dimethylbenzoyl)-6,7,8,9-tetrahydro-5H-5,8-epiminobenzo[7]annulen-3-yl)-3-(1-ethyl-4-methyl-1H-benzo[d][1,2,3]triazol-5-yl)propanoic Acid]
EC50: > 10 µM

CCn1nnc2c(C)c([C@H](CC(=O)O)c3ccc4c(c3)[C@@H]3CC[C@H](C4)N3C(=O)c3cc(C)ccc3C)ccc21 [Example 158, (R)-3-((5S,8R)-10-(2,5-dimethylbenzoyl)-6,7,8,9-tetrahydro-5H-5,8-epiminobenzo[7]annulen-3-yl)-3-(1-ethyl-4-methyl-1H-benzo[d][1,2,3]triazol-5-yl)propanoic acid]
EC50: > 10 µM

CCn1nnc2c(C)c([C@@H](CC(=O)O)c3ccc4c(c3)[C@H]3CC[C@@H](C4)N3C(=O)c3cc(C)ccc3C)ccc21 [Example 159, (S)-3-((5R,8S)-10-(2,5-dimethylbenzoyl)-6,7,8,9-tetrahydro-5H-5,8-epiminobenzo[7]annulen-3-yl)-3-(1-ethyl-4-methyl-1H-benzo[d][1,2,3]triazol-5-yl)propanoic Acid]
EC50: < 10 µM

CCn1nnc2c(C)c([C@@H](CC(=O)O)c3ccc4c(c3)[C@H]3CC[C@@H](C4)N3C(=O)c3cc(C)ccc3F)ccc21 [Example 160, (S)-3-(1-ethyl-4-methyl-1H-benzo[d][1,2,3]triazol-5-yl)-3-((5R,8S)-10-(2-fluoro-5-methylbenzoyl)-6,7,8,9-tetrahydro-5H-5,8-epiminobenzo[7]annulen-3-yl)propanoic acid]
EC50: < 1 µM

CCn1nnc2c(C)c([C@H](CC(=O)O)c3ccc4c(c3)[C@H]3CC[C@@H](C4)N3C(=O)c3cc(C)ccc3F)ccc21 [Example 161, (R)-3-(1-ethyl-4-methyl-1H-benzo[d][1,2,3]triazol-5-yl)-3-((5R,8S)-10-(2-fluoro-5-methylbenzoyl)-6,7,8,9-tetrahydro-5H-5,8-epiminobenzo[7]annulen-3-yl)propanoic acid]
EC50: > 10 µM

CCn1nnc2c(C)c([C@@H](CC(=O)O)c3ccc4c(c3)[C@@H]3CC[C@H](C4)N3C(=O)c3cc(C)ccc3F)ccc21 [Example 162, (S)-3-(1-ethyl-4-methyl-1H-benzo[d][1,2,3]triazol-5-yl)-3-((5S,8R)-10-(2-fluoro-5-methylbenzoyl)-6,7,8,9-tetrahydro-5H-5,8-epiminobenzo[7]annulen-3-yl)propanoic acid]
EC50: < 1 µM
